This passage reports binding results from paper PMC5356540.

The chains behind the UniProt entries cited, without tags or fusion partners.
UniProt P01108: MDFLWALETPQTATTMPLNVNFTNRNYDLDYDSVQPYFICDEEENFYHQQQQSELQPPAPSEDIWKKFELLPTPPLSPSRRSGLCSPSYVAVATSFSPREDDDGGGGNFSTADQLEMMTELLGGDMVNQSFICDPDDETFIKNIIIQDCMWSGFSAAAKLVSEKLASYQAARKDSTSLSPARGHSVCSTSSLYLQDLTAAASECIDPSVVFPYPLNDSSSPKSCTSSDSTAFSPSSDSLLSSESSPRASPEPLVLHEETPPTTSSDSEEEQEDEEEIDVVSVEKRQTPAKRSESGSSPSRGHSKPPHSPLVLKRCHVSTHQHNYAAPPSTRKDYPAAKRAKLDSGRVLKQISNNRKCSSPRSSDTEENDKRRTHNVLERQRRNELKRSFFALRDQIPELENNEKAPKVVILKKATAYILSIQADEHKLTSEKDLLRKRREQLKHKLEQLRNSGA

These are yes or no findings as the source states them, for the method shown. In cells and extracts the contact can be indirect. Some entries that bind do so weakly or less than the wild type.

This experiment has as its target c-Myc (mouse (endogenous in RAW264.7)) (UniProt P01108). Nature of the experiment: co-IP; co-immunoprecipitation in murine RAW264.7 cells; antibodies and conditions not described.

B1: Myb Like, SWIRM And MPN Domains 1 (MYSM1) (protein, UniProt Q69Z66 1-819)
chain: MEAEEADVDVEGDVAAAAQPGNDESTASVFQDHYLDSTWRRENGCLPWTLDSTISDENRAIIEKMLLEEEYYLSNKSLPGKFWVNQKEDNKKYTNSLQKSSKAMVDSPAKPASHSVKWTVEEKELFEQGLAKFGRRWTKIATLLKSRTVLQVKSYARQYFKNKVKWDVEKETPTQKSSSDLQVKNKDDRTKAWAAACLRGSADPCLNAVKIEKLSDDEDVDITDELDELTSQTSQNSGSHLTLDVPNSKMYTTNQGELCQEGPLAKSSGESLQNVKQGEGEACSSSEIASWAEKQKSTDKNSAELNEKYNKVVEEHTLHRGEVREEAKHSPSPEPCERQDSSGNEMLLPPCQIEEENHEGEELKPPEQEVEIDRNVIQEEEKQAIPEFFEGRQTKTPERYLKIRNYILDQWEICKPKYLNKTSVRPGLKNCGDVNCIGRIHTYLELIGAINFGCEQAVYNRPQPLDKVRAADRKDAEAAYQLAWRLQSMRTRRRRVRDPWGNWCDAKDLEGQTFEHLSVEEMARRKEEEKCKPIKFSKASKLPKSSLDPFQLIPCNFFSEEKQEPFQVKVAAEALLIMNLHAHVSMAEVIGLLGGRYSEADKVLEVCAAEPCNSLSTGLQCEMDPVSQTQASETLALRGYSVIGWYHSHPAFDPNPSLRDIDTQAKYQSYFSRGGAKFIGMIVSPYNRSNPLPYSQITCLVISEEVSPDGTYRLPYKFEVQQMLEEPQWELVFEKTRWIIEKYRLSNSSVPMDRIFRRDSDLTCLQKLLECLRKTLSKVANCFIAEEFLTQIENLFLSNYKSKEENGLAEEDSTKELFM
Take B1: the binding result is “binds”.
